Results are given in words; binding and its absence hold for the method and conditions named. Binding seen in cells or lysates may run through a third protein. Some binding calls cover weakened binding; strength is not graded here.
Key:
MUC1* (human) [1] = target: MUC1* (human) (UniProt P15941); experiment: co-immunoprecipitation with Ab5 from stem cell and T47D lysates, Western blot
MUC1* (human) [2] = target: MUC1* (human) (UniProt P15941); experiment: co-immunoprecipitation with Ab5 from human iPS and HES cell lysates, Western blot for NME7
MUC1* (human) [3] = target: MUC1* (human) (UniProt P15941); experiment: co-immunoprecipitation with Ab5 from T47D cancer cell lysate, Western blot

Chains of the proteins cited; added tags and fusions are not shown. Residues count along the entry.
UniProt P15941, residues 1110-1255: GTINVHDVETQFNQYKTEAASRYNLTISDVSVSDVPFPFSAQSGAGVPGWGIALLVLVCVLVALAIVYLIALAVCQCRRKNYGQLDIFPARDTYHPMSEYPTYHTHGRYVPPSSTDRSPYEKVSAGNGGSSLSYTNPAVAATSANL

Measured: binding

B1: NME7AB (ligand)
chain: MEKTLALIKPDAISKAGEIIEIINKAGFTITKLKMMMLSRKEALDFHVDHQSRPFFNELIQFITTGPIIAMEILRDDAICEWKRLLGPANSGVARTDASESIRALFGTDGIRNAAHGPDSFASAAREMELFFPSSGGCGPANTAKFTNCTCCIVKPHAVSEGLLGKILMAIRDAGFEISAMQMFNMDRVNVEEFYEVYKGVVTEYHDMVTEMYSGPCVAMEIQQNNATKTFREFCGPADPEIARHLRPGTLRAIFGKTKIQNAVHCTDLPEDGLLEVQYFFKILDN
notes: In the co-immunoprecipitations and Western blots this is the endogenous 33 kDa species of cell lysates; also called human NME7-AB; 33 kDa NME7-reactive species
binds: all assays above

B2: NME7-X1 (ligand)
chain: MMMLSRKEALDFHVDHQSRPFFNELIQFITTGPIIAMEILRDDAICEWKRLLGPANSGVARTDASESIRALFGTDGIRNAAHGPDSFASAAREMELFFPSSGGCGPANTAKFTNCTCCIVKPHAVSEGLLGKILMAIRDAGFEISAMQMFNMDRVNVEEFYEVYKGVVTEYHDMVTEMYSGPCVAMEIQQNNATKTFREFCGPADPEIARHLRPGTLRAIFGKTKIQNAVHCTDLPEDGLLEVQYFFKILDN
notes: Alternative splice isoform of NME7; In the blots it is the endogenous 30 kDa species of cell lysates; also called human NME7-X1; 30 kDa NME7-reactive species
binds: all assays above

Source: patent US20180263964A1 (MINERVA BIOTECHNOLOGIES, published 2018)
